# Data from article PMC3930595.
# Target: Slc1 (Ct043), type III secretion chaperone (Chlamydia trachomatis LGV serotype L2 strain 434/Bu (endogenous in EBs))
# Test: affinity purification with mass spectrometry; anti-Slc1 or anti-Mcsc antibodies (pre-immune serum as control) cross-linked to protein A/G resin; EB lysate in Pierce IP lysis buffer (25 mM Tris, 150 mM NaCl, 1 mM EDTA, 1% NP-40, 5% glycerol, pH 7.4), 4 h at 4°C; elution at pH 2.8; LC-MS/MS; three biological replicates
binder,measurement,value
"late transcription unit B protein (ltuB, Ct080) (protein, UniProt Q46404 1-97) MKKRSSRKLAQVIGRKTGNYFPASIEGETKKEHKHHYSTASKEKESLRKRAKEFDVLVHSLLDKHVPQNSDQVLIFTYQNGFVETDFHNFGRYSVKL",binding,binds

# These are yes or no findings as the source states them, for the method shown. Binding seen in cells or lysates may run through a third protein. These calls come from enrichment with a bait or labelling near it, and not all partners need be listed.
